Measurements taken from article PMC2868895.
Results are given in words; binding and its absence hold for the method and conditions named. Binding seen in cells or lysates may run through a third protein. Some binding calls cover weakened binding; strength is not graded here.

Sequences of proteins named here, by UniProt entry; tags and fusion partners are left off.
UniProt Q08999: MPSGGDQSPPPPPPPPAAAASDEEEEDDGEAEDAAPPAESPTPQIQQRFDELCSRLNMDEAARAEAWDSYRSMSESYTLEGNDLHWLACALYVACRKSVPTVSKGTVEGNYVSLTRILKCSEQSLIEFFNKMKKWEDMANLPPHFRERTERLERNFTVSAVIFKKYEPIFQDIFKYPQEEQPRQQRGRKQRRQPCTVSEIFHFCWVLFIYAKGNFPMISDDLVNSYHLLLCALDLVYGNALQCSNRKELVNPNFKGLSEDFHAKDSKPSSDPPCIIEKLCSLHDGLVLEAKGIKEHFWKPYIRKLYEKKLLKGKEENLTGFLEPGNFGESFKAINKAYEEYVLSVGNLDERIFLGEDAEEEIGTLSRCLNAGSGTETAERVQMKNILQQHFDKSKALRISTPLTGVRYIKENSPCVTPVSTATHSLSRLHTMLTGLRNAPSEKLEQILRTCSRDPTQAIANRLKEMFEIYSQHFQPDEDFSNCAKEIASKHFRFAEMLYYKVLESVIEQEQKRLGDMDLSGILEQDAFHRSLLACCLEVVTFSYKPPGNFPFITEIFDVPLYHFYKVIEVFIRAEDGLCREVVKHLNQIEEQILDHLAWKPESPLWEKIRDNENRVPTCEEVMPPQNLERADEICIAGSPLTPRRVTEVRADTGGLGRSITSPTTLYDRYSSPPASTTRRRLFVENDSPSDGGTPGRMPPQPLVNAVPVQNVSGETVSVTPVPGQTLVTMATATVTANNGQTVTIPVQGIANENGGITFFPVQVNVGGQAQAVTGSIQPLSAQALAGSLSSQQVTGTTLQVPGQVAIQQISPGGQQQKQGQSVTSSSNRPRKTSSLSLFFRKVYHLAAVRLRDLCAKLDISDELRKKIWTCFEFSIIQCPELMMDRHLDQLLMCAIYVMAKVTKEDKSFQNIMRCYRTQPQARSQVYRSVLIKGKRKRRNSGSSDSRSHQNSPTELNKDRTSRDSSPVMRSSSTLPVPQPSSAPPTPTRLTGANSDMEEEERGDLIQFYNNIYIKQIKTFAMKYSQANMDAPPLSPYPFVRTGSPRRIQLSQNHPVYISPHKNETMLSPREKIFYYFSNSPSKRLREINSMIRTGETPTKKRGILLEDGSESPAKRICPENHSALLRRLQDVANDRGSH
UniProt P03083: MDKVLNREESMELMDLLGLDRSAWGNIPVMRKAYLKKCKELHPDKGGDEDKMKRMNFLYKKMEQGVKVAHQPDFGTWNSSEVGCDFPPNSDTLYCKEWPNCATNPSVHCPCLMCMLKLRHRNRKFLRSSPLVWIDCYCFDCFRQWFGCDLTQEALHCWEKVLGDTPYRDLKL

Key:
pRB = molecular target: T1, pRB (UniProt P06400); test: co-IP; data not shown: co-IP/WB for p130 and pRB; antibodies and conditions not told
T1 sequence: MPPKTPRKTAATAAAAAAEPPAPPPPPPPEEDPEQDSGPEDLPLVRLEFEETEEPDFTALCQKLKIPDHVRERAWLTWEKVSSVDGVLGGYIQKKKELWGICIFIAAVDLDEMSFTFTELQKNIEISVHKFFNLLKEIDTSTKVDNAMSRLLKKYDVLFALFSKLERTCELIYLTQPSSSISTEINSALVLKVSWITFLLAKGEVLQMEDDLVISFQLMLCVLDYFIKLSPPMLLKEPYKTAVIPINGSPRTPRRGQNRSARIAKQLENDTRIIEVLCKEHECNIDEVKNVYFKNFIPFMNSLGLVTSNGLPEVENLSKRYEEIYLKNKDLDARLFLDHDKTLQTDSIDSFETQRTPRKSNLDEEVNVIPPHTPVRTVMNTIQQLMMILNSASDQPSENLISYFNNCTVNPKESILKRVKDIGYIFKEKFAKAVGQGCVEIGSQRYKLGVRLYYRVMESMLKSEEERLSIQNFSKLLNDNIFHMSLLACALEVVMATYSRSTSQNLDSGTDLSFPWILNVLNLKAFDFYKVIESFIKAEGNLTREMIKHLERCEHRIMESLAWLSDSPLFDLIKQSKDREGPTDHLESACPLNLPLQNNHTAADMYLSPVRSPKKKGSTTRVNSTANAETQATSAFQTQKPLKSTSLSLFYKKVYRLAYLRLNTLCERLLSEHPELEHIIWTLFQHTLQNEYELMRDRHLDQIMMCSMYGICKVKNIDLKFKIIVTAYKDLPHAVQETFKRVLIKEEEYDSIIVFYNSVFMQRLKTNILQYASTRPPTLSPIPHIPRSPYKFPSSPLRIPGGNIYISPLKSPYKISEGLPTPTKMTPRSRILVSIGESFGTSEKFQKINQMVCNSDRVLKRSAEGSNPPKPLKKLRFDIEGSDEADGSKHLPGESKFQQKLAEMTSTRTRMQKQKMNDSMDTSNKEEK

p130 = p130 (UniProt Q08999); test: as above
[1] = molecular target: T2, p107 (human (endogenous in Molt 4)) (UniProt P28749); test: co-IP; lysates of Rat2, MEF or 3T3 cells expressing all five JCV early proteins or tAg only, incubated overnight with Molt 4 extracts; IP with anti-p107 antibody, Western blot with a cocktail of anti-T monoclonal antibodies
T2 sequence: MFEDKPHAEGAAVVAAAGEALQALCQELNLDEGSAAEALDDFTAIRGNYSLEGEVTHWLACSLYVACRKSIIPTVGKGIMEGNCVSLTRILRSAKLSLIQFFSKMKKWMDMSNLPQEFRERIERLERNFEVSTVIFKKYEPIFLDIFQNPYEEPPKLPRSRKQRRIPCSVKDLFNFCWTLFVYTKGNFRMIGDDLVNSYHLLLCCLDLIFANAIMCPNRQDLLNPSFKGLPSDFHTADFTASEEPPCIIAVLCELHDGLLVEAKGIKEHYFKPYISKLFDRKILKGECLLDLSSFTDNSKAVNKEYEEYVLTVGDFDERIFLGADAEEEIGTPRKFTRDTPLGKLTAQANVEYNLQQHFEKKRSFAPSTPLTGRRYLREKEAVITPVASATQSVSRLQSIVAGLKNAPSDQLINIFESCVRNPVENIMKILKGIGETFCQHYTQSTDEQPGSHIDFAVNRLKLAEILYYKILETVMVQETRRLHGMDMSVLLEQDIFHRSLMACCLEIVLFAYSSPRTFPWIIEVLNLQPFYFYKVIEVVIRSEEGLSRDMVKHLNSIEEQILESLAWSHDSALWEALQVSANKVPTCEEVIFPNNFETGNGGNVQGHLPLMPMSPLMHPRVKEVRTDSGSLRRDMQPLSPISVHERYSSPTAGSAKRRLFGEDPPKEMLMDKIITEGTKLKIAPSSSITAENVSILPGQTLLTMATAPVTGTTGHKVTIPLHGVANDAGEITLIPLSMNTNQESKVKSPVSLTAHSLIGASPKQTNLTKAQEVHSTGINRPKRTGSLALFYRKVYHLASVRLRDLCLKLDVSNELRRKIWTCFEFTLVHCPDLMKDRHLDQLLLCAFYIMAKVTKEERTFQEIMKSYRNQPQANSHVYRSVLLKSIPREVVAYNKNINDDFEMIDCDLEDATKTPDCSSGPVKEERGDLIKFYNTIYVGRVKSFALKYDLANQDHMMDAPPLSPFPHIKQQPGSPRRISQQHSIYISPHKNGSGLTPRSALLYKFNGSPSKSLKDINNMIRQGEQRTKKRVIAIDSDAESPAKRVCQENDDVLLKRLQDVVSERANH

## JC virus small tumor antigen, wild type (from UniProt P03083 1-172)
pRB
  binding: binds weakly
p130
  binding: binds
[1]
  binding: binds
